Measurements: PubChem BioAssay AID330 (DTP/NCI, 2004)
The list shows only some results of the screen, not a fair sample: it gathers tests that were run many times, whatever their T/C, doses with no T/C, and many T/C values between a quarter and a half above the control. Further doses and runs are listed elsewhere. T/C is the treated group as % of the vehicle group. Some entries give survivors of the animals treated and no T/C: the source files T/C as zero there, which appears to mark a toxic dose or a test without result, not a measured value. Some survivor counts are full or nearly so, which does not show that the dose was tolerated: survival well below the control is almost never listed, so the zero probably covers shortened survival too. Survivors were counted at the toxicity check, usually on the fifth day, unless a day is given; later deaths do not show. Schedules are NCI's codes, read here as Q, the interval in days (D) or hours (H), X, the number of doses. Some entries were tested several times; their values stand side by side, smallest first. Where survival is the endpoint, this PubChem deposit counts one and a half times the control or more as active, and values a quarter to a half above the control carry no call in these data; other NCI protocols may use other cut-offs. Counts like (3×) stand for listed records that agree. Some T/C values carry the count of animals alive at the toxicity check (mostly the fifth day); without a count, all were alive then.

System: P388 leukemia ip, CD2F1 mice, survival T/C
Test: NCI In Vivo Anticancer Drug Screen. Data for tumor model P388 Leukemia (intraperitoneal) in CD2F1 (CDF1) mice
Details: T/C endpoint: median survival time, higher T/C = longer survival
[1] = dose: 200.0 mg/kg/injection, schedule: Q01DX001 (ip), vehicle: Klucel (hydroxypropylcellulose) (HPC)
[2] = dose: 400.0 mg/kg/injection, schedule: Q01DX001 (ip), vehicle: Klucel (hydroxypropylcellulose) (HPC)
[3] = dose: 60.0 mg/kg/injection, schedule: Q01DX005 (ip), vehicle: Klucel (hydroxypropylcellulose) (HPC)
[4] = dose: 120.0 mg/kg/injection, schedule: Q01DX005 (ip), vehicle: Klucel (hydroxypropylcellulose) (HPC)
[5] = dose: 240.0 mg/kg/injection, schedule: Q01DX005 (ip), vehicle: Klucel (hydroxypropylcellulose) (HPC)
[6] = dose: 25.0 mg/kg/injection, schedule: Q01DX009 (ip), vehicle: saline
[7] = dose: 50.0 mg/kg/injection, schedule: Q01DX009 (ip), vehicle: saline
[8] = dose: 100.0 mg/kg/injection, schedule: Q01DX009 (ip), vehicle: saline
[9] = dose: 200.0 mg/kg/injection, schedule: Q01DX009 (ip), vehicle: saline
[10] = dose: 100.0 mg/kg/injection, schedule: Q01DX005 (ip), vehicle: Klucel (hydroxypropylcellulose) (HPC)
[11] = dose: 200.0 mg/kg/injection, schedule: Q01DX005 (ip), vehicle: Klucel (hydroxypropylcellulose) (HPC)
[12] = dose: 240.0 mg/kg/injection, schedule: Q01DX005 (ip), vehicle: saline with Tween-80
[13] = dose: 25.0 mg/kg/injection, schedule: Q01DX009 (ip), vehicle: saline with Tween-80
[14] = dose: 50.0 mg/kg/injection, schedule: Q01DX009 (ip), vehicle: saline with Tween-80
[15] = dose: 100.0 mg/kg/injection, schedule: Q01DX009 (ip), vehicle: saline with Tween-80
[16] = dose: 200.0 mg/kg/injection, schedule: Q01DX009 (ip), vehicle: saline with Tween-80
[17] = dose: 200.0 mg/kg/injection, schedule: Q01DX005 (ip), vehicle: saline with Tween-80
[18] = dose: 240.0 mg/kg/injection, schedule: Q01DX005 (ip), vehicle: saline

Compound: Cc1cc(C)nc(NN=O)c1
- T/C (dose: 6.25 mg/kg/injection, schedule: Q01DX009 (ip), vehicle: water): 128 % of control
- T/C (dose: 12.5 mg/kg/injection, schedule: Q01DX009 (ip), vehicle: water): 145 % of control
- T/C (dose: 25.0 mg/kg/injection, schedule: Q01DX009 (ip), vehicle: water): 132 and 133 % of control
- survivor count (dose: 50.0 mg/kg/injection, schedule: Q01DX009 (ip), vehicle: water): 6 of 6

Compound: Cn1cc(F)c(=O)n(C)c1=O
- survivor count (dose: 500.0 mg/kg/injection, schedule: Q04DX002 (ip), vehicle: saline): 4 of 6

Compound: Cc1nc2sccn2c1C=O
- survivor count [1]: 1 of 6
- survivor count [2]: 0 of 6

Compound: Cn1cc(C2=C(Cl)C(=O)N(c3cc(Cl)cc(Cl)c3)C2=O)c(=O)n(C)c1=O
- survivor count [3]: 2 of 6
- survivor count [4]: 3 of 6
- survivor count [5]: 4 of 6

Compound: C[N+](C)=C1C=CC(=C2C=CSC=C2)C=C1
- T/C (dose: 3.12 mg/kg/injection, schedule: Q01DX009 (ip), vehicle: saline): 125 % of control
- T/C (dose: 6.25 mg/kg/injection, schedule: Q01DX009 (ip), vehicle: saline): 125 % of control
- survivor count [6]: 6 of 6
- survivor count [7]: 1 of 6 and 2 of 6
- survivor count [8]: 0 of 6
- survivor count [9]: 0 of 6

Compound: O=C(Nc1ccc(N=C=S)cc1Cl)c1cc(Br)cc(Br)c1O
- survivor count [1]: 1 of 6
- survivor count [2]: 1 of 6

Compound: CC(=O)N=c1ccc2nc3c(cc(N)c4ccccc43)oc-2c1
- survivor count [3]: 5 of 6
- survivor count [4]: 5 of 6
- survivor count [5]: 4 of 6

Compound: Cc1c[nH]c2nc(C)n(-c3ccc(F)cc3)c(=N)c12
- survivor count (dose: 50.0 mg/kg/injection, schedule: Q01DX005 (ip), vehicle: Klucel (hydroxypropylcellulose) (HPC)): 1 of 6
- survivor count [10]: 3 of 6
- survivor count [11]: 0 of 6

Compound: COc1cc(C(=O)O)on1
- survivor count [7]: 5 of 6
- survivor count [9]: 5 of 6

Compound: COc1ccc(C(Cl)c2ccc(OC)c(OC)c2)cc1OC
- survivor count (dose: 200.0 mg/kg/injection, schedule: Q01DX009 (ip), vehicle: other): 3 of 6
- survivor count (dose: 400.0 mg/kg/injection, schedule: Q01DX009 (ip), vehicle: other): 2 of 6

Compound: Cc1nccn1CC(=O)c1ccccc1
- survivor count [12]: 1 of 6

Compound: NCC(O)c1cccc(O)c1 (stereo not drawn)
- survivor count [6]: 3 of 6
- T/C [7]: 94 % of control [4 of 6 alive]
- survivor count [7]: 2 of 6, 3 of 6, 5 of 6
- survivor count [8]: 3 of 6 and 5 of 6
- survivor count [9]: 1 of 6 and 5 of 6
- survivor count (dose: 400.0 mg/kg/injection, schedule: Q01DX009 (ip), vehicle: saline): 3 of 6 and 4 of 6
- survivor count (dose: 600.0 mg/kg/injection, schedule: Q01DX009 (ip), vehicle: saline): 0 of 6

Compound: CSC(=S)NN=C1CCCCC1
- T/C (dose: 3.13 mg/kg/injection, schedule: Q01DX009 (ip), vehicle: saline with Tween-80): 142 % of control
- survivor count (dose: 6.25 mg/kg/injection, schedule: Q01DX009 (ip), vehicle: saline with Tween-80): 1 of 6
- survivor count (dose: 12.5 mg/kg/injection, schedule: Q01DX009 (ip), vehicle: saline with Tween-80): 2 of 6
- survivor count [13]: 3 of 6
- survivor count [14]: 3 of 6

Compound: O=C(O)/C(Cl)=C(\Cl)C(=O)Nc1ccc(Br)cc1
- survivor count [12]: 1 of 6

Compound: CC12CCC(=O)C1C=CC2=O (stereo not drawn)
- survivor count (dose: 400.0 mg/kg/injection, schedule: Q04DX003 (ip), vehicle: saline + Tween-80 + alcohol): 3 of 6

Compound: c1ccc2c(c1)ccc1c(NCCCCNc3c4ccccc4nc4c3ccc3ccccc34)c3ccccc3nc12
- survivor count [13]: 2 of 6
- survivor count [14]: 0 of 6
- survivor count [15]: 0 of 6
- survivor count [16]: 0 of 6

Compound: CCOc1cccc2nncn12
- survivor count (dose: 400.0 mg/kg/injection, schedule: Q01DX001 (ip), vehicle: saline): 0 of 6

Compound: OCCNCCNc1ccnc2c1ccc1ccccc12
- survivor count (dose: 100.0 mg/kg/injection, schedule: Q01DX005 (ip), vehicle: saline with Tween-80): 4 of 6
- survivor count [17]: 0 of 6

Compound: CCOC(=O)N[C@H]1CCc2cc(O)c(OC)c(OC)c2-c2ccc(SC)c(=O)cc21
- T/C (dose: 2.5 mg/kg/injection, schedule: Q01DX009 (ip), vehicle: Klucel (hydroxypropylcellulose) (HPC)): 130 % of control
- T/C (dose: 5.0 mg/kg/injection, schedule: Q01DX009 (ip), vehicle: Klucel (hydroxypropylcellulose) (HPC)): 125 % of control

Compound: CCCC[P+](c1ccccc1)(c1ccccc1)c1ccccc1
- T/C (dose: 20.0 mg/kg/injection, schedule: Q01DX009 (ip), vehicle: saline sonified): 127 % of control

Compound: OCCN=Cc1ccccc1O.OCCN=Cc1ccccc1O.[Cu]
- survivor count [10]: 1 of 6
- survivor count [11]: 0 of 6

Compound: CCOC1CC(C)(O)Cc2cc3c(c(O)c21)C(=O)c1c(O)cc2c(c1C3=O)OC1OC2(C)C(O)C(N(C)C)C1O (stereo not drawn)
- T/C (dose: 0.84 mg/kg/injection, schedule: Q01DX009 (ip), vehicle: other): 125 % of control
- T/C (dose: 1.25 mg/kg/injection, schedule: Q01DX009 (ip), vehicle: other): 141 and 142 % of control
- T/C (dose: 1.68 mg/kg/injection, schedule: Q01DX009 (ip), vehicle: other): 137 % of control
- survivor count (dose: 20.0 mg/kg/injection, schedule: Q01DX009 (ip), vehicle: other): 6 of 6
- survivor count (dose: 26.0 mg/kg/injection, schedule: Q01DX009 (ip), vehicle: other): 4 of 6

Compound: COC1(CO)C(=O)N(C)CC(=O)N1C (stereo not drawn)
- survivor count [18]: 1 of 6

Compound: CC(=O)N(C)O
- T/C [16]: 127 % of control (2×)
- T/C (dose: 400.0 mg/kg/injection, schedule: Q01DX005 (ip), vehicle: saline with Tween-80): 142 % of control

Compound: C/C=C(\C)C(=O)OC1C2C(C)=CC(=O)C(O)C2(C)C2C3(O)OCC24C1OC(=O)C(OC(C)=O)C4C(C)C3O (stereo not drawn)
- T/C (dose: 1.25 mg/kg/injection, schedule: Q01DX009 (ip), vehicle: saline): 131 % of control
- survivor count (dose: 7.5 mg/kg/injection, schedule: Q01DX005 (ip), vehicle: Klucel (hydroxypropylcellulose) (HPC)): 0 of 6
- survivor count (dose: 15.0 mg/kg/injection, schedule: Q01DX005 (ip), vehicle: Klucel (hydroxypropylcellulose) (HPC)): 0 of 6
- survivor count (dose: 30.0 mg/kg/injection, schedule: Q01DX005 (ip), vehicle: Klucel (hydroxypropylcellulose) (HPC)): 0 of 6
- survivor count [3]: 0 of 6
- survivor count [4]: 0 of 6

Compound: C[C@H]1CCC/C=C/[C@@H]2C[C@H](O)C[C@H]2[C@H](O)/C=C/C(=O)O1
- survivor count (dose: 50.0 mg/kg/injection, schedule: Q04DX003 (ip), vehicle: Klucel (hydroxypropylcellulose) (HPC)): 6 of 6

Compound: C/C=C/CC1(CC)C(=O)NC(=S)NC1=O
- survivor count [15]: 3 of 6
- survivor count [16]: 3 of 6

Compound: CC(C)c1nc2ccc(Cl)cc2[nH]1
- survivor count [17]: 2 of 5

Compound: NC(Cc1ccccc1)C(=O)Nc1cccnc1 (stereo not drawn)
- survivor count (dose: 120.0 mg/kg/injection, schedule: Q01DX005 (ip), vehicle: saline): 0 of 6
- survivor count [18]: 0 of 6

Compound: CC(C)(C)c1cc(C(C)(C)O)c2c(c1)C(C)(C)OS2(C)Cl (stereo not drawn)
- survivor count (dose: 100.0 mg/kg/injection, schedule: Q04DX003 (ip), vehicle: saline with Tween-80): 0 of 6
- survivor count (dose: 200.0 mg/kg/injection, schedule: Q04DX003 (ip), vehicle: saline with Tween-80): 0 of 6

Compound: OC(c1cc(-c2ccc(Cl)cc2)nc2ccccc12)C1CCCCN1 (stereo not drawn)
- survivor count [17]: 4 of 5
